Results are given in words; binding and its absence hold for the method and conditions named. Some binding calls cover weakened binding; strength is not graded here. For some of these results: Sequences can lack the tags named with a protein.
Key:
[1] = molecular target: IgG Fc-hVEGF-A (Human VEGF 165) fusion protein (rabbit; human) (UniProt P15692); experiment: competitive ELISA: antibody mixed with IgG Fc-hVEGF, added to plate-bound IgG Fc-VEGFR2 (KDR); bound VEGF detected (OD405); blocked ligand-receptor pair VEGF/KDR [FIG. 1]
[2] = molecular target: IgG Fc-hVEGF-A (Human VEGF 165) fusion protein (rabbit; human) (UniProt P15692); experiment: competitive ELISA, antibody 90 ug/ml-45 ng/ml premixed with IgG Fc-hVEGF 1 ug/ml, plate coated with IgG Fc-VEGFR2
human VEGF = molecular target: T1, human VEGF (human, UniProt P15692-4 27-191, limits assumed); experiment: SPR, BIAcore-3000, human VEGF on CM5 chip
T1 construct: The background describes VEGF as a homodimer

Amino acid sequences for entries named in this document (tags omitted). A change or cut given only in a name is not applied to a line headed by its entry. Chains listed by the source or under a name are the forms on record and can include a tag or linker.
human VEGF (P15692-4, form named): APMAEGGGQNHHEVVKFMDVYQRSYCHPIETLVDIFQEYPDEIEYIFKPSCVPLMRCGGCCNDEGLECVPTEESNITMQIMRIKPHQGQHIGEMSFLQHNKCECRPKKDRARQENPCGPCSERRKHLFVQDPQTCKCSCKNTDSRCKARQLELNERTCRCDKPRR

| Binder | binding [1] | binding [2] | binding (human VEGF) |
| --- | --- | --- | --- |
| recombinant humanized antibody expressed by the HZD-V1 clone (antibody, V domains shown, The pairing of VH-HZD1 with VK-HZD1 for clone HZD-V1 is inferred from the names; Variable domains were cloned onto human CH and human CK) VH: QQLVESGGGLVKPGGSLRLSCAASGFSFSNNDVMCWVRQAPGKGLEWIGCIMTTDVVTEYANWAKSRFTVSKDSAKNSVYLQMNSLRAEDTAVYFCARDSVGSPLMSFDLWGPGTLVTVSS VL: ALQMTQSPSSLSASVGDRVTINCQASQSVYGNNELSWYQQKPGKPPKLLIYRASTLASGVPSRFSGSGSGTDFTLTISSLQPEDVATYYCGGYKSYSNDGNGFGGGTKVEIK | binds | binds | – |
| recombinant humanized antibody expressed by the HZD-V2 clone (antibody, V domains shown, The pairing of VH-HZD2 with VK-HZD2 for clone HZD-V2 is inferred from the names; Variable domains were cloned onto human CH and human CK) VH: QQLVESGGGLVKPGGSLRLSCAASGFSFSNNDVMCWVRQAPGKGLEWIGCIMTTDVVTEYANWAKSRFTVSRDSAKNSVYLQMNSLRAEDTAVYFCARDSVGSPLMSFDLWGPGTLVTVSS VL: ALQMTQSPSSLSASVGDRVTINCQASQSIYNNNELSWYQQKPGKPPKLLIYRASTLASGVPSRFSGSGSGTDFTLTISSLQPEDVATYYCGGYKSYSNDGNGFGGGTKVEIK | binds | binds | – |
| recombinant humanized antibody expressed by the HZD-V5 clone (antibody, V domains shown, The pairing of VH-HZD5 with VK-HZD5 for clone HZD-V5 is inferred from the names; Variable domains were cloned onto human CH and human CK) VH: EVQLVESGGGLVKPGGSLRLSCAASGFSFSNNDVMCWVRQAPGKGLEWIGCIMTTDVVTEYANWAKSRFTVSKDSAKNSVYLQMNSLRAEDTAVYFCARDSVGSPLMSFDLWGPGTLVTVSS VL: DIQMTQSPSSLSASVGDRVTINCQASQSVYGNNELSWYQQKPGKPPKLLIYRASTLASGVPSRFSGSGSGTDFTLTISSLQPEDVATYYCGGYKSYSNDGNGFGGGTKVEIK | binds | binds | – |
| EPI0030 antibody (humanized rabbit anti-VEGF monoclonal antibody expressed by the HZD-V6 clone) (antibody, human IgG1, kappa, V domains shown) VH: EVQLVESGGGLVKPGGSLRLSCAASGFSFSNNDVMCWVRQAPGKGLEWIGCIMTTDVVTEYANWAKSRFTVSRDSAKNSVYLQMNSLRAEDTAVYFCARDSVGSPLMSFDLWGPGTLVTVSS VL: DIQMTQSPSSLSASVGDRVTINCQASQSIYNNNELSWYQQKPGKPPKLLIYRASTLASGVPSRFSGSGSGTDFTLTISSLQPEDVATYYCGGYKSYSNDGNGFGGGTKVEIKR | – | – | binds |

Source: patent US20120231011A1 (APEXIGEN, published 2012)
